Laboratory results published in publication PMC6889377.
Results are given in words; binding and its absence hold for the method and conditions named. Binding seen in cells or lysates may run through a third protein. Some entries that bind do so weakly or less than the wild type. Sequences can lack the tags named with a protein.

Target: T1, Flag-ELP5 (Elongator complex subunit 5) (UniProt Q8TE02)
T1 sequence: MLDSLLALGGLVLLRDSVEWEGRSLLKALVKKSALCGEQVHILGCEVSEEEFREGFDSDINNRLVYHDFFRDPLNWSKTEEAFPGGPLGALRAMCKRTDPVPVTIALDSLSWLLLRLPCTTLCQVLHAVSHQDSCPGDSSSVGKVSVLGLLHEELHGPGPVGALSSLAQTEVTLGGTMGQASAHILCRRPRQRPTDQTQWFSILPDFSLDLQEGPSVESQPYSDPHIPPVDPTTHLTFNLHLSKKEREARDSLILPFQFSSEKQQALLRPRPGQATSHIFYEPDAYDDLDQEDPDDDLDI
Experiment: co-IP; GBC cells transfected with Flag-ELP5 for 48 h; IP lysis buffer (50 mM Tris-HCl pH 8.0, 150 mM NaCl, 1 mM EDTA, 0.5% NP-40, protease inhibitors); Anti-Flag M2 affinity gel overnight at 4 °C; immunoblotting

B1: ELP4 (protein, UniProt Q96EB1 1-424)
chain: MAAVATCGSVAASTGSAVATASKSNVTSFQRRGPRASVTNDSGPRLVSIAGTRPSVRNGQLLVSTGLPALDQLLGGGLAVGTVLLIEEDKYNIYSPLLFKYFLAEGIVNGHTLLVASAKEDPANILQELPAPLLDDKCKKEFDEDVYNHKTPESNIKMKIAWRYQLLPKMEIGPVSSSRFGHYYDASKRMPQELIEASNWHGFFLPEKISSTLKVEPCSLTPGYTKLLQFIQNIIYEEGFDGSNPQKKQRNILRIGIQNLGSPLWGDDICCAENGGNSHSLTKFLYVLRGLLRTSLSACIITMPTHLIQNKAIIARVTTLSDVVVGLESFIGSERETNPLYKDYHGLIHIRQIPRLNNLICDESDVKDLAFKLKRKLFTIERLHLPPDLSDTVSRSSKMDLAESAKRLGPGCGMMAGGKKHLDF
binding: binds
